Measurements reported in the supplement of paper PMC6411743.
± gives the standard deviation of the averaged measurements. Only a part is listed here, and it is no random draw.

Assays:
Assay in all cases: NP40-soluble protein abundance relative to vehicle (solubility fold change) (ratio); higher = more soluble protein in presence of ATP
[1] = biological target: T1, UniProt Q9NPJ3
T1 sequence (whole entry): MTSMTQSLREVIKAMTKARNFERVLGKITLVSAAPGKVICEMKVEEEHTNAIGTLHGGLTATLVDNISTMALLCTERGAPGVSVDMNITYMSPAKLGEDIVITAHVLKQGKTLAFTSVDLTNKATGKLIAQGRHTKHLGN
Summary of the method: (§1)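 Jurkat crude lysate prepared with a Dounce homogeniser was treated at eight concentrations spanning 0.1 to 10 mM, 10 min at room temperature then 3 min at 37 °C. Solubilisation with 0.8% NP40 and benzonase and ultracentrifugation preceded TMT labelling of the supernatant for LC-MS/MS. Fold change against the detergent-processed vehicle was determined per replicate from vsn-normalised intensities, across three independent experiments.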

[2] = biological target: T2, UniProt Q9NQ66 and related entries
T2 sequence (whole entry): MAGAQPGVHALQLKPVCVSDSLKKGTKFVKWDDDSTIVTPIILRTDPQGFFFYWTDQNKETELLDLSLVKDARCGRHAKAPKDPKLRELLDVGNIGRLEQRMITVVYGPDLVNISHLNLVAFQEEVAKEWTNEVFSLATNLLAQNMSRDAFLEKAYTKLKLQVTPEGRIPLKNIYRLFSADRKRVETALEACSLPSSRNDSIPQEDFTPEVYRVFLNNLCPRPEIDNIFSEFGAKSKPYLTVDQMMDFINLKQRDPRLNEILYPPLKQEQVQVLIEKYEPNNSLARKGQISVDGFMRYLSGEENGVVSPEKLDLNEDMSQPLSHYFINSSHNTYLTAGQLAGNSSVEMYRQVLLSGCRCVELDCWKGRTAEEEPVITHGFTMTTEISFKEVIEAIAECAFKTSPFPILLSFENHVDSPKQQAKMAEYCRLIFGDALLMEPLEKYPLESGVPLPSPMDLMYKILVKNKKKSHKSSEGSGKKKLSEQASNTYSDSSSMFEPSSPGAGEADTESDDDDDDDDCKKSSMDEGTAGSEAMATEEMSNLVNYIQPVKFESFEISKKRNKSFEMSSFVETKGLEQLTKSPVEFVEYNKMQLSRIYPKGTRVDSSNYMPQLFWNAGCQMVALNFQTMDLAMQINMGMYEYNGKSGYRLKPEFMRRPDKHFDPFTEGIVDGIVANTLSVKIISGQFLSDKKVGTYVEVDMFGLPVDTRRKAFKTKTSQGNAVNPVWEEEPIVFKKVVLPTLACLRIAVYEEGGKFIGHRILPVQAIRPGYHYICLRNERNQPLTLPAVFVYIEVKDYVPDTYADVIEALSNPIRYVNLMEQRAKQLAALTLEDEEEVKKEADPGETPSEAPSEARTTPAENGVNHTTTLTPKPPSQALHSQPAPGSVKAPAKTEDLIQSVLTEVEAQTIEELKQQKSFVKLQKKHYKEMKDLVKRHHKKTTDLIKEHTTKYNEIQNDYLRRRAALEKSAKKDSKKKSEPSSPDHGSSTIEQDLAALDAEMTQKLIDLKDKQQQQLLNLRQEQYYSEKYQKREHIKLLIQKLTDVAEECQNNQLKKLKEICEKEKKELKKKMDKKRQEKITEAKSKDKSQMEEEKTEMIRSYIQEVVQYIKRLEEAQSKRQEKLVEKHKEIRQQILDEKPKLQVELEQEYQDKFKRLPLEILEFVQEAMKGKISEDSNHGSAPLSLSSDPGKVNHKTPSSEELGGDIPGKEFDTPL
Summary of the method: as §1

[3] = biological target: T3, UniProt Q9NQ86 and related entries
T3 sequence (whole entry): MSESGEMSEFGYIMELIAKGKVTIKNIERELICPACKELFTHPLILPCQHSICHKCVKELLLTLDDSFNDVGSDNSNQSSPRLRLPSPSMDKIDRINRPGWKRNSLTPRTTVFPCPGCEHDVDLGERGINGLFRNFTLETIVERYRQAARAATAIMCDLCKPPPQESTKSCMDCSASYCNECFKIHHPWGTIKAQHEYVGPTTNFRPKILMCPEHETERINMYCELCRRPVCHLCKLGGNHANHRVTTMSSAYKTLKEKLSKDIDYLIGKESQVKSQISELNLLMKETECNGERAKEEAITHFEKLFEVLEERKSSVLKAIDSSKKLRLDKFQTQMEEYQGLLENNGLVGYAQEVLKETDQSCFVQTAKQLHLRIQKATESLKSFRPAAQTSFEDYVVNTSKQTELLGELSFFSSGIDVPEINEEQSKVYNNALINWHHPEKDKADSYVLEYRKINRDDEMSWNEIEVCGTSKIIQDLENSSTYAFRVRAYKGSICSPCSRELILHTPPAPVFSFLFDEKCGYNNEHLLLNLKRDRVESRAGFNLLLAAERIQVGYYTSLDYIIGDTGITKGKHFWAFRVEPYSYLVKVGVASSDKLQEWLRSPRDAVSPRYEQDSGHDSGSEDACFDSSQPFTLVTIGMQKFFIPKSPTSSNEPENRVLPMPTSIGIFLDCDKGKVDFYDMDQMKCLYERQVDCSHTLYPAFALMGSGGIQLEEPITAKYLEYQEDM
Summary of the method: as §1

[4] = biological target: T4, UniProt Q9NQC7 and related entries
T4 sequence (whole entry): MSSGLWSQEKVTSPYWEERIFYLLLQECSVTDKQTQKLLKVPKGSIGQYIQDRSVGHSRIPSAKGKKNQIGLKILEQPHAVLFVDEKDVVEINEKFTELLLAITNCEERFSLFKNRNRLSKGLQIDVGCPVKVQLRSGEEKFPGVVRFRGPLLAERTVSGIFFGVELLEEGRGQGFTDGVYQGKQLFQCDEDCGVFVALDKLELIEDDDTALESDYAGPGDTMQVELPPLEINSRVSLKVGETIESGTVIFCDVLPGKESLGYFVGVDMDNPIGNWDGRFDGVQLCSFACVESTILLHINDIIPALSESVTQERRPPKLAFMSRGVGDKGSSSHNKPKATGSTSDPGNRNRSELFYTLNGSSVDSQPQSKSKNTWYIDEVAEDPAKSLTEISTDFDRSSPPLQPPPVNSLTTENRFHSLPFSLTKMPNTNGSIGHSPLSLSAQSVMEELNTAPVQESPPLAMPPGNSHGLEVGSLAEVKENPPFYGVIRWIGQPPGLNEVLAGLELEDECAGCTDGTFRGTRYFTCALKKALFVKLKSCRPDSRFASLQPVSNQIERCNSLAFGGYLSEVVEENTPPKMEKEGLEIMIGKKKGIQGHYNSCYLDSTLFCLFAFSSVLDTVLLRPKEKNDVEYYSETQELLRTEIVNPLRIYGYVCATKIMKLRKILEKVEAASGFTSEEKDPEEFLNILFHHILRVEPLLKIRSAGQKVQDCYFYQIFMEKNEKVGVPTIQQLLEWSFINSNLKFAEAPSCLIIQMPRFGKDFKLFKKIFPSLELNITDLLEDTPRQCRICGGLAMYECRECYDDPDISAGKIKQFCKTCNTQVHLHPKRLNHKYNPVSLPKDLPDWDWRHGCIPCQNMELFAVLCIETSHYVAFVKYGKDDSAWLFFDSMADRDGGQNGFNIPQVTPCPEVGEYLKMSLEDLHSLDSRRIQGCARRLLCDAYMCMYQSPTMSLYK
Summary of the method: as §1

[5] = biological target: T5, UniProt Q9NSI8 and related entries
T5 sequence (whole entry): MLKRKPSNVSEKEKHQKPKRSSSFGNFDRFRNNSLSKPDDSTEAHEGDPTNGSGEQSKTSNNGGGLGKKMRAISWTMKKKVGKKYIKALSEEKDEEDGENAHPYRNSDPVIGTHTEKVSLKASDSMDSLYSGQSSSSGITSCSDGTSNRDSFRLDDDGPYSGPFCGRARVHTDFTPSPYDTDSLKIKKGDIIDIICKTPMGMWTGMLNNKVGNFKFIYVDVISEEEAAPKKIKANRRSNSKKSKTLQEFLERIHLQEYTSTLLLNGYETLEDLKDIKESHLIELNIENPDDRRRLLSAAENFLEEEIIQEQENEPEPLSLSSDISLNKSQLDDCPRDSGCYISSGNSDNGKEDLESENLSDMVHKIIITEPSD
Summary of the method: as §1

[6] = biological target: T6, UniProt Q9NUS5
T6 sequence (whole entry): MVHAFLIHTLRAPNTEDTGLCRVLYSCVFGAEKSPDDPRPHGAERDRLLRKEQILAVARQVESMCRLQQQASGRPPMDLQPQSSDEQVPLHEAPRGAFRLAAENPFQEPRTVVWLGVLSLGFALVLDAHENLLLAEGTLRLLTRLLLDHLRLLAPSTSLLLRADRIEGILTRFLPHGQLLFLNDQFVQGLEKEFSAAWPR
Summary of the method: as §1

Nc1ncnc2c1ncn2[C@@H]1O[C@H](COP(=O)(O)OP(=O)(O)OP(=O)(O)O)[C@@H](O)[C@H]1O [adenosine triphosphate]
NP40-soluble protein abundance ([1]; concentration: 6mM): 0.944 ± 0.08 | NP40-soluble protein abundance ([1]; concentration: 8mM): 0.928 ± 0.07 | NP40-soluble protein abundance ([1]; concentration: 10mM): 0.928 ± 0.046 | NP40-soluble protein abundance ([2]; concentration: 1mM): 1.01 ± 0.052 | NP40-soluble protein abundance ([2]; concentration: 2mM): 1.01 ± 0.013 | NP40-soluble protein abundance ([2]; concentration: 4mM): 1.02 ± 0.056 | NP40-soluble protein abundance ([2]; concentration: 6mM): 0.956 ± 0.074 | NP40-soluble protein abundance ([2]; concentration: 8mM): 0.95 ± 0.066 | NP40-soluble protein abundance ([2]; concentration: 10mM): 0.946 ± 0.043 | NP40-soluble protein abundance ([3]; concentration: 1mM): 0.995 ± 0.043 | NP40-soluble protein abundance ([3]; concentration: 2mM): 1.04 ± 0.061 | NP40-soluble protein abundance ([3]; concentration: 4mM): 1.02 ± 0.065 | NP40-soluble protein abundance ([3]; concentration: 6mM): 0.94 ± 0.04 | NP40-soluble protein abundance ([3]; concentration: 8mM): 1 ± 0.056 | NP40-soluble protein abundance ([3]; concentration: 10mM): 1.02 ± 0.032 | NP40-soluble protein abundance ([4]; concentration: 1mM): 0.955 ± 0.015 | NP40-soluble protein abundance ([4]; concentration: 2mM): 0.995 ± 0.1 | NP40-soluble protein abundance ([4]; concentration: 4mM): 1.01 ± 0.061 | NP40-soluble protein abundance ([4]; concentration: 6mM): 0.954 ± 0.072 | NP40-soluble protein abundance ([4]; concentration: 8mM): 1.01 ± 0.099 | NP40-soluble protein abundance ([4]; concentration: 10mM): 0.973 ± 0.048 | NP40-soluble protein abundance ([5]; concentration: 1mM): 0.942 ± 0.12 | NP40-soluble protein abundance ([5]; concentration: 2mM): 0.956 ± 0.13 | NP40-soluble protein abundance ([5]; concentration: 4mM): 0.972 ± 0.15 | NP40-soluble protein abundance ([5]; concentration: 6mM): 0.967 ± 0.13 | NP40-soluble protein abundance ([5]; concentration: 8mM): 0.924 ± 0.11 | NP40-soluble protein abundance ([5]; concentration: 10mM): 0.926 ± 0.093 | NP40-soluble protein abundance ([6]; concentration: 1mM): 0.987 ± 0.028 | NP40-soluble protein abundance ([6]; concentration: 2mM): 0.969 ± 0.032 | NP40-soluble protein abundance ([6]; concentration: 4mM): 0.947 ± 0.047 | NP40-soluble protein abundance ([6]; concentration: 6mM): 0.9792 ± 0.0048
